Laboratory results reported in article PMC7982423.
Results are given in words; binding and its absence hold for the method and conditions named. Binding seen in cells or lysates may run through a third protein. These calls come from enrichment with a bait or labelling near it, and not all partners need be listed. For part of these data: A no says only that the protein was not detected with the bait. Where a sequence is shown, tags or fusion partners need not be part of it.

Chains of the proteins cited; added tags and fusions are not shown.
UniProt Q60631: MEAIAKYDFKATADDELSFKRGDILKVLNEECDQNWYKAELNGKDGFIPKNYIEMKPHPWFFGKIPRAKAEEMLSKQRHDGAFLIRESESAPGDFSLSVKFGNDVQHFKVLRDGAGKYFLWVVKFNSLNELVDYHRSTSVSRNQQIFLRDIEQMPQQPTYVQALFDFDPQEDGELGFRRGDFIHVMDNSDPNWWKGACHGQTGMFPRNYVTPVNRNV

T1: p110δ with a C-terminal AviTag (p110δ-AviTag) (mouse) (UniProt O35904)
T1 sequence (chain, biotin on the AviTag (biotinylated in vivo by BirA)): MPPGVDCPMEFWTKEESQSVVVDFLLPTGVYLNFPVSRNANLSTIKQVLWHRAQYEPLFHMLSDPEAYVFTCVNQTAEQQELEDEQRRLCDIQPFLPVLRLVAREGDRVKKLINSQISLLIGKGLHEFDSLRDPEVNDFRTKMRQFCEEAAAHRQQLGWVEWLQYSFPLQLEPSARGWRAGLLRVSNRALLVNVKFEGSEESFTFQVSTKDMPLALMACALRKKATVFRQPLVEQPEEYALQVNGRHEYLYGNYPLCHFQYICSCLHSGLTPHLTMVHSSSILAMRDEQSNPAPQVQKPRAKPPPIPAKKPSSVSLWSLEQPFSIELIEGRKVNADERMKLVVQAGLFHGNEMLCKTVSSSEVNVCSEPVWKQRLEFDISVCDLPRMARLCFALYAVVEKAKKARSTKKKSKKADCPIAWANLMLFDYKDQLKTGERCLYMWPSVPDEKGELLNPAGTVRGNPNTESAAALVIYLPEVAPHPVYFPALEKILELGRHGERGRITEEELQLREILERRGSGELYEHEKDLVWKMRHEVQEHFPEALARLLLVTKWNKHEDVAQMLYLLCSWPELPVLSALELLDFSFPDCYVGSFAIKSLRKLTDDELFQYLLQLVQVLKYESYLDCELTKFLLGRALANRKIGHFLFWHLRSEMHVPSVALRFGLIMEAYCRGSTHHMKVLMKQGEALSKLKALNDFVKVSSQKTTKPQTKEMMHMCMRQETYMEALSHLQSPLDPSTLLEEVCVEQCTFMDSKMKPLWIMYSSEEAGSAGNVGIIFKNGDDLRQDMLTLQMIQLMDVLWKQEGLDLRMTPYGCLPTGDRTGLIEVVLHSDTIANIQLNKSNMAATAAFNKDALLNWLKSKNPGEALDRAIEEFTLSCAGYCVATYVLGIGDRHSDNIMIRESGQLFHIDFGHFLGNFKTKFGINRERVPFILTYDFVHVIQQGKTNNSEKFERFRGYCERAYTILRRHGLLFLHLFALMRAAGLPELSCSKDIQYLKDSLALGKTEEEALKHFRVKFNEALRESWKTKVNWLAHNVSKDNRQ

B1: GAB3 (Gab-family adaptor protein) (protein, UniProt Q8BSM5 1-595)
chain: MSTGDTVCMGWLIKSPPERKLQRYAWRKRWFVLRRGRMSGNPDVLEYYRNKHSNKPIRVIDLSECTVWKHAGPGFIRKEFQKNFVFIVKTTSRTFYLVAKTEEEMQVWVHSISQVCNFSHLEDGADSMESLSHMPSSFQPSPASSLHTVHVANSALLKDDRNTNSVVTEETRRESEFLFLPDYLILSNCETGRLHHASLPTRCDSWSNSNHSLAQTSFDDVFLDGLQPFISNNLVHPLHHGKVSQDFPSIRPQASLIWNREINGPSRNLMSSSPLLESSLNPTVHVEEKQVSLPSGVKELNIMSNTPPPRPPKPSYLSEQRQDQPLLTGHSSNKKPGYTMVPRRISLSGLDHVGSWKGDVQSQSLRHRDKRLSLNLPCKFSPIYPTASPSAEDSYVPMSPKGTASELRPHCSQDDYIPMSSSMLPELPADLEPPPVNRNLKPQRKSRPPPLDSRNLSTIQEHTSLTRTYTVPCNRTSFLSPQRNGINCARLFSTPSEEEEEEEEEEEEEEEEEKYIQMEEYGTVSSLSRSALSWTKKFSLDYLALDFNSTSPAPVQKKLLLSEEQRVDYVQVDEQKTQALRSTKQEWTDERQSKV
B2: STS-2 (UBASH3A), protein phosphatase (enzyme, UniProt Q3V3E1 1-624)
chain: MAAGETQLYAKVSNKLKGRSTPSLLDPLLAMGFPTHTALKALAATGRKTAEAAADWLHGHCNDPSLDDPIPQEYALFLCPTGPLLEKLQEFWRESRRQCAKNRAHEVFPHVTLCDFFTCEDQKVECLYEALRRAGDRILGSFPTLVPLVLHSSISYLGFFINDSPADAIREFAMAFATEAAVLADCTIKPCTKQLHLTLAHKFYPHHQRTLEQLAKAIQPSHSCQWTAALYSRDMRFVHYQTLKALFQYKPQNADELMLSAGDYIFVDPTQQEEASEGWAIGISHRTGCRGFLPENYTERANEADTWVKHRTYTFNLAMDLNSRKDFEASCRGNGEPHTPSMSKSVSSIQALQATISRRGILVVRHGERVDQVFGKSWLQQCTTADGKYYRPDLNFPRSLPRRSNGIKDFENDPPLSSCGIFQARLAGEALLDSGVRVTAVFASPALRCVQTAKHILEELKLEKKLKIRVEPGIFEWMKWEASKATLTFLTLEELKEANFNVDLDYRPALPRCSLMPAESYDQYVERCAVSMGQIINTCPQDMGITLIVSHSSALDSCTRPLLGLPPRECGDFAQLVRKIPSLGMCFCEENREDGKWDLVNPPVKTLTHGANSVFNWRNWISSN
B3: IRS2 (adaptor protein) (protein, UniProt P81122 1-1321)
chain: MASAPLPGPPASAGGDGPNLNNNNNNNNHSVRKCGYLRKQKHGHKRFFVLRGPGTGGDEASAAGGSPPQPPRLEYYESEKKWRSKAGAPKRVIALDCCLNINKRADAKHKYLIALYTKDEYFAVAAENEQEQEGWYRALTDLVSEGRSGEGGSGTTGGSCSASLPGVLGGSAGAAGCDDNYGLVTPATAVYREVWQVNLKPKGLGQSKNLTGVYRLCLSARTIGFVKLNCEQPSVTLQLMNIRRCGHSDSFFFIEVGRSAVTGPGELWMQADDSVVAQNIHETILEAMKALKELFEFRPRSKSQSSGSSATHPISVPGARRHHHLVNLPPSQTGLVRRSRTDSLAATPPAAKCTSCRVRTASEGDGGAAGGAGTAGGRPMSVAGSPLSPGPVRAPLSRSHTLSAGCGGRPSKVTLAPAGGALQHSRSMSMPVAHSPPAATSPGSLSSSSGHGSGSYPLPPGSHPHLPHPLHHPQGQRPSSGSASASGSPSDPGFMSLDEYGSSPGDLRAFSSHRSNTPESIAETPPARDGSGGELYGYMSMDRPLSHCGRPYRRVSGDGAQDLDRGLRKRTYSLTTPARQRQVPQPSSASLDEYTLMRATFSGSSGRLCPSFPASSPKVAYNPYPEDYGDIEIGSHKSSSSNLGADDGYMPMTPGAALRSGGPNSCKSDDYMPMSPTSVSAPKQILQPRLAAALPPSGAAVPAPPSGVGRTFPVNGGGYKASSPAESSPEDSGYMRMWCGSKLSMENPDPKLLPNGDYLNMSPSEAGTAGTPPDFSAALRGGSEGLKGIPGHCYSSLPRSYKAPCSCSGDNDQYVLMSSPVGRILEEERLEPQATPGAGTFGAAGGSHTQPHHSAVPSSMRPSAIGGRPEGFLGQRCRAVRPTRLSLEGLQTLPSMQEYPLPTEPKSPGEYINIDFGEAGTRLSPPAPPLLASAASSSSLLSASSPASSLGSGTPGTSSDSRQRSPLSDYMNLDFSSPKSPKPSTRSGDTVGSMDGLLSPEASSPYPPLPPRPSTSPSSLQQPLPPAPGDLYRLPPASAATSQGPTAGSSMSSEPGDNGDYTEMAFGVAATPPQPIVAPPKPEGARVASPTSGLKRLSLMDQVSGVEAFLQVSQPPDPHRGAKVIRADPQGGRRRHSSETFSSTTTVTPVSPSFAHNSKRHNSASVENVSLRKSSEGSSTLGGGDEPPTSPGQAQPLVAVPPVPQARPWNPGQPGALIGCPGGSSSPMRRETSVGFQNGLNYIAIDVRGEQGSLAQSQPQPGDKNSWSRTRSLGGLLGTVGGSGASGVCGGPGTGALPSASTYASIDFLSHHLKEATVVKE
B4: CD5 (transmembrane receptor) (receptor, UniProt P13379 24-494)
chain: QSGRGGLDIQVMLSGSNSKCQGQVEIQMENKWKTVCSSSWRLSQDHSKNAQQASAVCKQLRCGDPLALGPFPSLNRPQNQVFCQGSPWSISNCNNTSSQDQCLPLSLICLEPQRTTPPPTTTPPTTVPEPTAPPRLQLVPGHEGLRCTGVVEFYNGSWGGTILYKAKDRPLGLGNLICKSLQCGSFLTHLSGTEAAGTPAPAELRDPRPLPIRWEAPNGSCVSLQQCFQKTTAQEGGQALTVICSDFQPKVQSRLVGGSSVCEGIAEVRQRSQWEALCDSSAARGRGRWEELCREQQCGDLISFHTVDADKTSPGFLCAQEKLSQCYHLQKKKHCNKRVFVTCQDPNPAGLAPGTVASIILTLVLLVVLLAMCGPLVYKKLVKKFRQKKQRQWIGPTGVNQNMSFHRSHTATVRSQVENPTASHVDNEYSQPPRNSHLSAYPALEGALHRSSTQPDNSSDSDYDLQVAQRL

Legend:
[1] = biological target: T1, p110δ with a C-terminal AviTag (p110δ-AviTag) (mouse); test: affinity purification with mass spectrometry; as a8, naive CD4+ T cells left unstimulated
[2] = biological target: T1, p110δ with a C-terminal AviTag (p110δ-AviTag) (mouse); test: affinity purification with mass spectrometry; streptavidin beads capture biotinylated p110δ-AviTag from lysates of CD4+ T cell blasts stimulated for 1 min by CD3-CD4-crosslinking (unstimulated cells compared); control purifications from BirA^Tg cells; TMT-labelled nLC-MS/MS, three independent experiments; specific: >1.5-fold enriched, p < 0.05
[3] = biological target: T1, p110δ with a C-terminal AviTag (p110δ-AviTag) (mouse); test: affinity purification with mass spectrometry; as a3, CD4+ T cell blasts left unstimulated
[4] = biological target: T1, p110δ with a C-terminal AviTag (p110δ-AviTag) (mouse); test: affinity purification with mass spectrometry; streptavidin beads capture biotinylated p110δ-AviTag from lysates of naive CD4+ T cells stimulated for 1 min by CD3-CD4-crosslinking (unstimulated cells compared); control purifications from BirA^Tg cells; TMT-labelled nLC-MS/MS, three independent experiments; specific: >1.5-fold enriched, p < 0.05 and not classed as non-specific in blasts

Molecule	binding [1]	binding [2]	binding [3]	binding [4]
GRB2 (adaptor protein) (from UniProt Q60631 1-217)	no binding (only cells without TCR stimulation)	binds	no binding (only cells without TCR stimulation)	binds
SHP-2 (protein phosphatase) (from UniProt P35235 1-593) (enzyme)	no binding (only cells without TCR stimulation)	binds	no binding (only cells without TCR stimulation)	binds
CBL (E3 ligase and adaptor) (from UniProt P22682 1-913)	no binding (only cells without TCR stimulation)	binds	no binding (only cells without TCR stimulation)	binds
B1	no binding (only cells without TCR stimulation)	binds	no binding (only cells without TCR stimulation)	binds
B2	no binding (only cells without TCR stimulation)	binds	no binding (only cells without TCR stimulation)	binds
B3	no binding (only cells without TCR stimulation)	binds		binds
B4	no binding (only cells without TCR stimulation)	binds	no binding (only cells without TCR stimulation)	binds
